In the supplement of paper PMC4604168 (melanoma cell lines):
Some of the results follow. Single values are uncertain, as repeats are few or missing.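 Cells were imaged in 1,536-well plates, and nuclei stained with an antibody against cleaved PARP were counted against all DNA-stained nuclei to give the apoptosis fraction. Screening doses were chosen to leave most cells alive, and resting and induced cleaved-PARP levels differ strongly between cell lines.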

How the values were obtained:
Assay in all cases: cleaved PARP positive nuclei fraction relative to DMSO control; melanoma cells; higher = more apoptosis
Details in all cases: library dose: low library concentration; 72 h
501Mel = system: 501Mel
A101D = system: A101D
A2058 = system: A2058
A375 = system: A375
C32 = system: C32
CBRC008 = system: CBRC008 (line from a melanoma biopsy)
CBRC014 = system: CBRC014 (line from a melanoma biopsy)
CBRC016 = system: CBRC016 (line from a melanoma biopsy)
CBRC017 = system: CBRC017 (line from a melanoma biopsy)
CBRC034 = system: CBRC034 (line from a melanoma biopsy)
COLO792 = system: COLO792
COLO800 = system: COLO800
COLO829 = system: COLO829
G361 = system: G361
IPC-298 = system: IPC-298
IST-MEL1 = system: IST-MEL1
LB2518-MEL = system: LB2518-MEL
LOXIMVI = system: LOXIMVI
MEL-HO = system: MEL-HO

| Compound | cleaved PARP positive nuclei fraction (501Mel) [%] | cleaved PARP positive nuclei fraction (A101D) [%] | cleaved PARP positive nuclei fraction (A2058) [%] | cleaved PARP positive nuclei fraction (A375) [%] | cleaved PARP positive nuclei fraction (C32) [%] | cleaved PARP positive nuclei fraction (CBRC008) [%] | cleaved PARP positive nuclei fraction (CBRC014) [%] | cleaved PARP positive nuclei fraction (CBRC016) [%] | cleaved PARP positive nuclei fraction (CBRC017) [%] | cleaved PARP positive nuclei fraction (CBRC034) [%] | cleaved PARP positive nuclei fraction (COLO792) [%] | cleaved PARP positive nuclei fraction (COLO800) [%] | cleaved PARP positive nuclei fraction (COLO829) [%] | cleaved PARP positive nuclei fraction (G361) [%] | cleaved PARP positive nuclei fraction (IPC-298) [%] | cleaved PARP positive nuclei fraction (IST-MEL1) [%] | cleaved PARP positive nuclei fraction (LB2518-MEL) [%] | cleaved PARP positive nuclei fraction (LOXIMVI) [%] | cleaved PARP positive nuclei fraction (MEL-HO) [%] |
| --- | --- | --- | --- | --- | --- | --- | --- | --- | --- | --- | --- | --- | --- | --- | --- | --- | --- | --- | --- |
| CCCCCCCCCCCCCCCCCCOP(=O)([O-])OC1CC[N+](C)(C)CC1 [Perifosine] + CN1CCN(c2ccc3nc(-c4c(N)c5c(F)cccc5[nH]c4=O)[nH]c3c2)CC1 [Dovitinib] (first compound 0.4 µM, partner dose 0.1 µM) | 112 | 271 | 97.7 | 208 | 72.5 | 62 | 76.8 | 153 | 88.3 | 82.5 | 66 | 83.5 | 174 | 274 | 44.1 | 124 | 53.9 | 207 | 63.3 |
| O=C(Nc1cc(C(F)(F)F)cc(C(F)(F)F)c1)c1cc(Cl)ccc1O + CN1CCN(c2ccc3nc(-c4c(N)c5c(F)cccc5[nH]c4=O)[nH]c3c2)CC1 [Dovitinib] (first compound 0.016 µM, partner dose 0.1 µM) | 126 | 131 | 158 | 200 | 89.5 | 219 | 234 | 55 | 116 | 70.7 | 124 | 28.8 | 104 | 49.9 | 175 | 31.3 | 52.3 | 114 | 35.6 |
| N#CC[C@H](C1CCCC1)n1cc(-c2ncnc3[nH]ccc23)cn1 [ruxolitinib] + CO[C@H]1C[C@@H]2CC[C@@H](C)[C@@](O)(O2)C(=O)C(=O)N2CCCC[C@H]2C(=O)O[C@H]([C@H](C)C[C@@H]2CC[C@@H](OCCO)[C@H](OC)C2)CC(=O)[C@H](C)/C=C(\C)[C@@H](O)[C@@H](OC)C(=O)[C@H](C)C[C@H](C)/C=C/C=C/C=C/1C [everolimus] (first compound 1 µM, partner dose 0.02 µM) | 163 | 165 | 97.6 | 782 | 45.8 | 106 | 90.5 | 95.5 | 112 | 66.6 | 90.3 | 43.4 | 93 | 171 | 37.8 | 109 | 27.1 | 169 | 181 |
| O=c1[nH]nc(Sc2ncc([N+](=O)[O-])s2)n1-c1ccc2c(c1)OCCO2 + CN1CCN(c2ccc3nc(-c4c(N)c5c(F)cccc5[nH]c4=O)[nH]c3c2)CC1 [Dovitinib] (first compound 0.2 µM, partner dose 0.1 µM) | 72.4 | 243 | 50.4 | 93.2 | 82.8 | 66.2 | 97 | 133 | 88.9 | 138 | 25.3 | 191 | 84.3 | 81.8 | 55.2 | 43 | 62.2 | 207 | 147 |
| COc1cc([C@@H]2c3cc4c(cc3[C@@H](O[C@@H]3O[C@@H]5CO[C@@H](C)O[C@H]5[C@H](O)[C@H]3O)[C@H]3COC(=O)[C@H]23)OCO4)cc(OC)c1O [etoposide] + NC1(c2ccc(-c3nc4ccn5c(=O)[nH]nc5c4cc3-c3ccccc3)cc2)CCC1 [MK2206] (first compound 0.02 µM, partner dose 0.4 µM) | 102 | 156 | 102 | 60.9 | 167 | 45.7 | 284 | 125 | 90.2 | 283 | 61.1 | 34.2 | 154 | 189 | 104 | 61.4 | 69.7 | 54.4 | 179 |
| O=C(Nc1cc(C(F)(F)F)cc(C(F)(F)F)c1)c1cc(Cl)ccc1O + Cn1cnc2c(F)c(Nc3ccc(Br)cc3Cl)c(C(=O)NOCCO)cc21 [selumetinib] (first compound 0.016 µM, partner dose 0.015 µM) | 155 | 90.2 | 178 | 103 | 85.9 | 159 | 91.5 | 151 | 131 | 93.7 | 352 | 78.7 | 46.9 | 132 | 201 | 65.3 | 136 | 51.9 | 67.4 |
| Cc1ccc(Nc2nccc(N(C)c3ccc4c(C)n(C)nc4c3)n2)cc1S(N)(=O)=O [Pazopanib] + Nc1nc(F)nc2c1ncn2[C@@H]1O[C@H](CO)[C@@H](O)[C@@H]1O [fludarabine] (first compound 0.4 µM, partner dose 0.2 µM) | 24000 | 162 | 82.5 | 2400 | 39.2 | 36.6 | 133 | 150 | 90.5 | 32.8 | 126 | 118 | 126 | 144 | 53 | 84 | 108 | 141 | 157 |
| Cc1cn(-c2cc(NC(=O)c3ccc(C)c(Nc4nccc(-c5cccnc5)n4)c3)cc(C(F)(F)F)c2)cn1 [nilotinib] + NC1(c2ccc(-c3nc4ccn5c(=O)[nH]nc5c4cc3-c3ccccc3)cc2)CCC1 [MK2206] (first compound 0.2 µM, partner dose 0.4 µM) | 63.5 | 49.4 | 172 | 50.5 | 83.3 | 31.4 | 67.7 | 74.3 | 76.9 | 118 | 81.9 | 112 | 86.6 | 112 | 141 | 153 | 217 | 165 | 139 |
| O=C(/C=C/c1cccnc1)NCCCCC1CCN(C(=O)c2ccccc2)CC1 + NC(=O)c1ccc(N(C(N)=O)c2c(F)cccc2F)nc1-c1ccc(F)cc1F [VX702] (first compound 0.01 µM, partner dose 0.4 µM) | 116 | 244 | 116 | 85.4 | 200 | 3070 | 129 | 348 | 505 | 1510 | 207 | 260 | 139 | 2890 | 280 | 180 | 42.4 | 64.3 | 176 |
| Cc1ccc(Nc2nccc(N(C)c3ccc4c(C)n(C)nc4c3)n2)cc1S(N)(=O)=O [Pazopanib] + Cc1nc(Nc2ncc(C(=O)Nc3c(C)cccc3Cl)s2)cc(N2CCN(CCO)CC2)n1 [dasatanib] (first compound 0.4 µM, partner dose 0.004 µM) | 89.1 | 94.6 | 151 | 120 | 75 | 96 | 139 | 44.7 | 94.1 | 85.7 | 196 | 91.8 | 153 | 113 | 104 | 134 | 122 | 113 | 58.4 |
| CCCCCCCCCCCCCCCCCCOP(=O)([O-])OC1CC[N+](C)(C)CC1 [Perifosine] + C=C(c1ccc(C(=O)O)cc1)c1cc2c(cc1C)C(C)(C)CCC2(C)C [Bexarotene] (first compound 0.4 µM, partner dose 2 µM) | 117 | 63.1 | 81.8 | 175 | 84.3 | 158 | 98.7 | 133 | 120 | 26.9 | 76.6 | 145 | 164 | 229 | 111 | 59.4 | 107 | 96.5 | 138 |
| COc1cc([C@@H]2c3cc4c(cc3[C@@H](O[C@@H]3O[C@@H]5CO[C@@H](C)O[C@H]5[C@H](O)[C@H]3O)[C@H]3COC(=O)[C@H]23)OCO4)cc(OC)c1O [etoposide] + O=C(O)[C@@H]1[O][Sb](=[O])([O][Sb]2(=[O])[O][C@H]([C@H](O)CO)[C@H](O)[C@H](C(=O)O)[O]2)[O][C@H]([C@H](O)CO)[C@@H]1O [stibogluconate] (first compound 0.02 µM, partner dose 2 µM) | 156 | 289 | 138 | 269 | 84.8 | 115 | 88.3 | 130 | 87.7 | 218 | 64.6 | 83.9 | 130 | 118 | 47.8 | 85.9 | 127 | 123 | 31 |
| O=C(Nc1cc(C(F)(F)F)cc(C(F)(F)F)c1)c1cc(Cl)ccc1O + Cn1nnc2c(C(N)=O)ncn2c1=O [temozolomide] (first compound 0.016 µM, partner dose 2 µM) | 108 | 127 | 43.8 | 158 | 78.8 | 142 | 94.3 | 67.3 | 98.4 | 39.2 | 183 | 69.4 | 169 | 76.5 | 87.7 | 145 | 194 | 41.2 | 131 |
| Cc1ccc(Nc2nccc(N(C)c3ccc4c(C)n(C)nc4c3)n2)cc1S(N)(=O)=O [Pazopanib] + Cn1sc(=O)n(Cc2ccccc2)c1=O [TDZD-8] (first compound 0.4 µM, partner dose 0.4 µM) | 71.8 | 146 | 60.6 | 43.2 | 145 | 42.8 | 97.7 | 120 | 93.1 | 34 | 63.8 | 79.5 | 103 | 70.1 | 251 | 32 | 178 | 72.8 | 92.6 |
| O=C(Nc1cc(C(F)(F)F)cc(C(F)(F)F)c1)c1cc(Cl)ccc1O + CC(C)C[C@H](NC(=O)[C@H](Cc1ccccc1)NC(=O)c1cnccn1)B(O)O [Bortezomib] (first compound 0.016 µM, partner dose 0.001 µM) | 122 | 108 | 158 | 105 | 88 | 407 | 114 | 107 | 256 | 234 | 199 | 52.7 | 144 | 185 | 125 | 128 | 254 | 81.6 | 41.5 |
| Cc1cc(Nc2cc(N3CCN(C)CC3)nc(Sc3ccc(NC(=O)C4CC4)cc3)n2)n[nH]1 [Tozasertib] + CCCCCCCCc1ccc(CCC(N)(CO)CO)cc1 [fingolimod] (first compound 0.006 µM, partner dose 2 µM) | 108 | 99.6 | 68.9 | 183 | 82.3 | 90.1 | 78 | 72 | 119 | 61.4 | 43.4 | 124 | 149 | 82.5 | 147 | 62.3 | 60.3 | 74.1 | 71.1 |

Limited to cleaved PARP positive nuclei fraction (LB2518-MEL) [%], cleaved PARP positive nuclei fraction (A375) [%] and cleaved PARP positive nuclei fraction (COLO800) [%] (2 entries from above):
Compound	cleaved PARP positive nuclei fraction (LB2518-MEL) [%]	cleaved PARP positive nuclei fraction (A375) [%]	cleaved PARP positive nuclei fraction (COLO800) [%]
O=C(Nc1cc(C(F)(F)F)cc(C(F)(F)F)c1)c1cc(Cl)ccc1O + CC(C)C[C@H](NC(=O)[C@H](Cc1ccccc1)NC(=O)c1cnccn1)B(O)O [Bortezomib] (first compound 0.016 µM, partner dose 0.001 µM)	254	105	52.7
Cc1cc(Nc2cc(N3CCN(C)CC3)nc(Sc3ccc(NC(=O)C4CC4)cc3)n2)n[nH]1 [Tozasertib] + CCCCCCCCc1ccc(CCC(N)(CO)CO)cc1 [fingolimod] (first compound 0.006 µM, partner dose 2 µM)	60.3	183	124
